Positions count from the first letter of the chain named. Results are given in words; binding and its absence hold for the method and conditions named. Binding seen in cells or lysates may run through a third protein. Some binding calls cover weakened binding; strength is not graded here. Where a sequence is shown, tags or fusion partners need not be part of it.
What was measured:
[1] = biological target: T1, GST-ZFPM2/FOG2 p.K737E (human) (UniProt Q8WW38); test: pull-down; GST-ZFPM2/FOG2 (wild type or mutant) bound to 200 µl glutathione resin (Pierce GST Protein Interaction Pull-Down kit), incubated with GATA4 fragment at 4°C; washed with 25 mM Tris-HCl pH 7.2, 150 mM NaCl; eluate on SDS-PAGE, Coomassie staining
T1 sequence: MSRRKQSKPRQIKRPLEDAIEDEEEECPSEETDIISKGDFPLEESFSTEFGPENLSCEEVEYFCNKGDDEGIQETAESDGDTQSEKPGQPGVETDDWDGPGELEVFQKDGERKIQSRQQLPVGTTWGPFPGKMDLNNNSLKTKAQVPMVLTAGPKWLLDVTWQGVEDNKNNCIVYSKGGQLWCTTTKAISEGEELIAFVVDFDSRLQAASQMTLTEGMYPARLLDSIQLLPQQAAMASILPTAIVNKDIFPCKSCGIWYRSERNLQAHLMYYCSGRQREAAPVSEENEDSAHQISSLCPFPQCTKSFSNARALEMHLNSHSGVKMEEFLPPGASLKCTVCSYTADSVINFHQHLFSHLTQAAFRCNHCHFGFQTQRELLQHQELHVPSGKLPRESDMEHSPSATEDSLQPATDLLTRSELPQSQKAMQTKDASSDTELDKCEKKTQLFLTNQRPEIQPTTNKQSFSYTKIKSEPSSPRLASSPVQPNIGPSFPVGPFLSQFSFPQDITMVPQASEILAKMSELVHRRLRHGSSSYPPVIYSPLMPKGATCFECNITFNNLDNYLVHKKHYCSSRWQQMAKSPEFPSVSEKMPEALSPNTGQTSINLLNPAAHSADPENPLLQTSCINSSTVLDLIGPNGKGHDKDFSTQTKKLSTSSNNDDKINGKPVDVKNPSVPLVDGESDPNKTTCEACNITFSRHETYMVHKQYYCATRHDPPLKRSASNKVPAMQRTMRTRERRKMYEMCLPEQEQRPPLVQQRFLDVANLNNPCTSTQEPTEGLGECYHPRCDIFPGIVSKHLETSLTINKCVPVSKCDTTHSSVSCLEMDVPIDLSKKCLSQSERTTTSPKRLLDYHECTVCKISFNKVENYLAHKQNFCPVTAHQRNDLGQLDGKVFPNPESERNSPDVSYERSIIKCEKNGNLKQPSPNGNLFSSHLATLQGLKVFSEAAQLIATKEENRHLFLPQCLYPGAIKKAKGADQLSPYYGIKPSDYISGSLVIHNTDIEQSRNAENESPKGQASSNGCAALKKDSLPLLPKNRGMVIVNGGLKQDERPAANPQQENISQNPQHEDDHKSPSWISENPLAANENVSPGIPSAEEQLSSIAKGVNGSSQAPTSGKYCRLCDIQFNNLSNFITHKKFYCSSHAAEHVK

Amino acid sequences for entries named in this document (tags omitted). Residues count along the entry.
UniProt P43694, residues 200-254: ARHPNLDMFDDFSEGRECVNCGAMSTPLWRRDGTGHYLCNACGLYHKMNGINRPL

[2] = biological target: T2, GST-ZFPM2/FOG2 p.S402R (human) (UniProt Q8WW38); test: as above
T2 sequence: T1 sequence with S402R, E737K

**Q.** What does the source list for “N-terminal zinc-finger sequence of GATA4 (residues 200-254) (from UniProt P43694 200-254) (domain or fragment)”?
**A.** binding [1]: binds; binding [2]: no binding

Reference: publication PMC4099368
